This is a selection; strong and weak results do not stand in their true shares.

Sequences of proteins named here, by UniProt entry; tags and fusion partners are left off. A change or cut given only in a name is not applied to a line headed by its entry.
UniProt Q13247: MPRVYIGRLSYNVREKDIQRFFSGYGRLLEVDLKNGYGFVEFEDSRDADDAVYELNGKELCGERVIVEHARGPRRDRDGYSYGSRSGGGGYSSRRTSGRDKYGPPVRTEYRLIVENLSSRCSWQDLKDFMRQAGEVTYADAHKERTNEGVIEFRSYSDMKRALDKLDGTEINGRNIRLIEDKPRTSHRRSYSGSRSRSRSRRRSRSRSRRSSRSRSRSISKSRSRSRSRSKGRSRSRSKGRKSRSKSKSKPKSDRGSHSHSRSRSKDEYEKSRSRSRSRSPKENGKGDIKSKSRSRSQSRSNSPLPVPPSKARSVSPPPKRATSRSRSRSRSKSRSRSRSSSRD
UniProt Q12888: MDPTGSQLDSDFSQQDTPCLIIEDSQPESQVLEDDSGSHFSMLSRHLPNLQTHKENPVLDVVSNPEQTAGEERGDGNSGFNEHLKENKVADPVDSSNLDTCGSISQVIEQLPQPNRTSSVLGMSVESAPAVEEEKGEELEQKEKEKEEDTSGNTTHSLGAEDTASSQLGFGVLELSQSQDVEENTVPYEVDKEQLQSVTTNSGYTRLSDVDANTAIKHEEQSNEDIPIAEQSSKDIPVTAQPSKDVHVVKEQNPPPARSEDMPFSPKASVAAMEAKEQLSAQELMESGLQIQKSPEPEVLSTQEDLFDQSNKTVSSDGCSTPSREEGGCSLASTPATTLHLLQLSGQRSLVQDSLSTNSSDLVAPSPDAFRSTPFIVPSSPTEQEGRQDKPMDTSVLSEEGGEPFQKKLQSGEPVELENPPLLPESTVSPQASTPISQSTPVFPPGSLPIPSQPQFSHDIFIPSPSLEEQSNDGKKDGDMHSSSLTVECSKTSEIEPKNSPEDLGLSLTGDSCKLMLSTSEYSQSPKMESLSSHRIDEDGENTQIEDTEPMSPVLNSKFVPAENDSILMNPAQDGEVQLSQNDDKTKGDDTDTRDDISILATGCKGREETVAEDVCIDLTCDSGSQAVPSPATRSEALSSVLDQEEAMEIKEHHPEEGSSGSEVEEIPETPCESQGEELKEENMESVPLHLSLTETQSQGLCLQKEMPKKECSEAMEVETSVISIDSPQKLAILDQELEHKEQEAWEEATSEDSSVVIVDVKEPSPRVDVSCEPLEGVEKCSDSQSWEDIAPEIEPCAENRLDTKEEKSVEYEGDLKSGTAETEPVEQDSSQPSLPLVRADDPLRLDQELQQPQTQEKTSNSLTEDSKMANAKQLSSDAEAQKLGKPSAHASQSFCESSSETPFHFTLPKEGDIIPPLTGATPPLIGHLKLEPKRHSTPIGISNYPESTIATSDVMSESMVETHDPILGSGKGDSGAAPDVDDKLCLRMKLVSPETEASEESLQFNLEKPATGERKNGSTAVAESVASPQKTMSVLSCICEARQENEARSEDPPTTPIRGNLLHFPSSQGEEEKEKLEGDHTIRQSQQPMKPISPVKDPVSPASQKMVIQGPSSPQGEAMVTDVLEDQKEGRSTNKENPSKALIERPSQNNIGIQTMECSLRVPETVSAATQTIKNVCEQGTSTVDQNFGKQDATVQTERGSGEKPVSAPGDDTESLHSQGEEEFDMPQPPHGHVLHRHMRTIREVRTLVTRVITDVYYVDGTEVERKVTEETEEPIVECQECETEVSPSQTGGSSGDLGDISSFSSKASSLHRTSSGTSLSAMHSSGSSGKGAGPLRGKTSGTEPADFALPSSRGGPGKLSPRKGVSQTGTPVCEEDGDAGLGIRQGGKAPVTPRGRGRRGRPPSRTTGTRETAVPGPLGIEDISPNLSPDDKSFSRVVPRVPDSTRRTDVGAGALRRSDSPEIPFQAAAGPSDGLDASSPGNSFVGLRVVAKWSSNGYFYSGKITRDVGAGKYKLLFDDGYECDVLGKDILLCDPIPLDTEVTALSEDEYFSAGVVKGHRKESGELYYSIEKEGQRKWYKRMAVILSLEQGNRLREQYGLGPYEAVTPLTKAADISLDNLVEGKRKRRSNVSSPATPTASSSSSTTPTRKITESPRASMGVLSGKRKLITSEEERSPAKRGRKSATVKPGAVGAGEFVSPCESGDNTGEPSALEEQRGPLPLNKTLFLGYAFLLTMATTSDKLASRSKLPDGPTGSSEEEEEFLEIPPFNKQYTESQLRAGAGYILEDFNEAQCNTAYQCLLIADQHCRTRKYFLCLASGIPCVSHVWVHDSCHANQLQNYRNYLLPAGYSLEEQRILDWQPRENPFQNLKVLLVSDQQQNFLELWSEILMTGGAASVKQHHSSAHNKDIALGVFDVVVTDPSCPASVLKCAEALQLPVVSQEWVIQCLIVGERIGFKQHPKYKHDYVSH
UniProt Q12905: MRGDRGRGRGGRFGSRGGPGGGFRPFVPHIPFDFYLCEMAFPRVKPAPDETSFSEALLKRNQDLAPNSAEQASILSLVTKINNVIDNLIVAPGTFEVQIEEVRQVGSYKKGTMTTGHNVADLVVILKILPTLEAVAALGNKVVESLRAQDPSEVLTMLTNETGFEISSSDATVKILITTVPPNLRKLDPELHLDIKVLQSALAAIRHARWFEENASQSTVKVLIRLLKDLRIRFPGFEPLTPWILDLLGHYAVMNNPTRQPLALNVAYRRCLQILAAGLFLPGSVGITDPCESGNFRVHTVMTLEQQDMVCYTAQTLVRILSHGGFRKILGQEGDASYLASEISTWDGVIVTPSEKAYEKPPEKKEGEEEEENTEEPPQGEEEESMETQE
UniProt Q08J23, whole entry, looked up: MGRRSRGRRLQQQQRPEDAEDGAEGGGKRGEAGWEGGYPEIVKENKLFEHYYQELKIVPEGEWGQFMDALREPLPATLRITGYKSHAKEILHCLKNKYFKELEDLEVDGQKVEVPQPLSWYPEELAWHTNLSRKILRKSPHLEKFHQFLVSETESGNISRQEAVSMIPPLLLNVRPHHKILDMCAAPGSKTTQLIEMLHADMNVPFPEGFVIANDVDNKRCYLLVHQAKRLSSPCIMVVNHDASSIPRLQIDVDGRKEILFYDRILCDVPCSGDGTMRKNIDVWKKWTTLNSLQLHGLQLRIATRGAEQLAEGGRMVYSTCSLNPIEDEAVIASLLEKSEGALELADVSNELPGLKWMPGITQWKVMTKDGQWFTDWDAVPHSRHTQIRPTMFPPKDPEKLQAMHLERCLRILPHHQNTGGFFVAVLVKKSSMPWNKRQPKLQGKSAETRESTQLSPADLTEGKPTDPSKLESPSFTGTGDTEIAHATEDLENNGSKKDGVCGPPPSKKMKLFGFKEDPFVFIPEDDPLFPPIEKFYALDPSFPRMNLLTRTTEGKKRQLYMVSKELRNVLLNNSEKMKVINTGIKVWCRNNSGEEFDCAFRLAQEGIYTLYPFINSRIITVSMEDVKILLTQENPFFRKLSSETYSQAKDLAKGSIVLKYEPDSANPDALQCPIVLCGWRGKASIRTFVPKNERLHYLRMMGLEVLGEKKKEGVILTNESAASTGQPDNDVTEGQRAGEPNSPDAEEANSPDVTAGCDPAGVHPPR
UniProt Q13148, whole entry, looked up: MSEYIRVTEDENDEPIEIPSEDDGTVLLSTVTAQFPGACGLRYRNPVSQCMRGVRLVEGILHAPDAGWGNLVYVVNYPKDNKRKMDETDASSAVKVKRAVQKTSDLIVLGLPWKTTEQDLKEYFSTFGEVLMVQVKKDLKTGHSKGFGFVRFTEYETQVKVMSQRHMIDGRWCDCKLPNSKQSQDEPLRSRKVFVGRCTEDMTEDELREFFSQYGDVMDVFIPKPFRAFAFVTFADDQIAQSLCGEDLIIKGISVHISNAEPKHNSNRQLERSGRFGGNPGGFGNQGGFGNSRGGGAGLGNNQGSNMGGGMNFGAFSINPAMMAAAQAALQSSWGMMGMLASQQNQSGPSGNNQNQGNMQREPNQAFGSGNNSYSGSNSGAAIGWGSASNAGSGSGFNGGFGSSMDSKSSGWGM
UniProt Q13480: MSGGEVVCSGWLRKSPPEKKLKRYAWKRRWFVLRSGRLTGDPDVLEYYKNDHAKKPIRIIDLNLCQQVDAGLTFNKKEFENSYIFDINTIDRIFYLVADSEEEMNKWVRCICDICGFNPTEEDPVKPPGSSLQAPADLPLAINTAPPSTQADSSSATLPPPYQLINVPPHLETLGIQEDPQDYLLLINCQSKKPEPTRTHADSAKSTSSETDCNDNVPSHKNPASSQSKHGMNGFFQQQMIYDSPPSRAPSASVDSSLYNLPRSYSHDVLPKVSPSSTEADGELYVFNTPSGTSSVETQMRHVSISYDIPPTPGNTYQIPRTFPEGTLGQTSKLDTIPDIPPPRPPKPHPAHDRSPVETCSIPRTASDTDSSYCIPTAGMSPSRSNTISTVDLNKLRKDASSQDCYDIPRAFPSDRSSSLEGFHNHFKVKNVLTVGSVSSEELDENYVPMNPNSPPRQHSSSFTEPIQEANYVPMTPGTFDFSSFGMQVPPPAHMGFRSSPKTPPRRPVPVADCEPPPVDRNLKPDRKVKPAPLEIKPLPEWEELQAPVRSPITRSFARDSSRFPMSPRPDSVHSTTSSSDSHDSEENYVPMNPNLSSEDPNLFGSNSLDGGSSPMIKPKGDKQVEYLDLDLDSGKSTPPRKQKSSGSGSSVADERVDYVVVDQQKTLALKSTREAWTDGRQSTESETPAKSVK
UniProt Q13464: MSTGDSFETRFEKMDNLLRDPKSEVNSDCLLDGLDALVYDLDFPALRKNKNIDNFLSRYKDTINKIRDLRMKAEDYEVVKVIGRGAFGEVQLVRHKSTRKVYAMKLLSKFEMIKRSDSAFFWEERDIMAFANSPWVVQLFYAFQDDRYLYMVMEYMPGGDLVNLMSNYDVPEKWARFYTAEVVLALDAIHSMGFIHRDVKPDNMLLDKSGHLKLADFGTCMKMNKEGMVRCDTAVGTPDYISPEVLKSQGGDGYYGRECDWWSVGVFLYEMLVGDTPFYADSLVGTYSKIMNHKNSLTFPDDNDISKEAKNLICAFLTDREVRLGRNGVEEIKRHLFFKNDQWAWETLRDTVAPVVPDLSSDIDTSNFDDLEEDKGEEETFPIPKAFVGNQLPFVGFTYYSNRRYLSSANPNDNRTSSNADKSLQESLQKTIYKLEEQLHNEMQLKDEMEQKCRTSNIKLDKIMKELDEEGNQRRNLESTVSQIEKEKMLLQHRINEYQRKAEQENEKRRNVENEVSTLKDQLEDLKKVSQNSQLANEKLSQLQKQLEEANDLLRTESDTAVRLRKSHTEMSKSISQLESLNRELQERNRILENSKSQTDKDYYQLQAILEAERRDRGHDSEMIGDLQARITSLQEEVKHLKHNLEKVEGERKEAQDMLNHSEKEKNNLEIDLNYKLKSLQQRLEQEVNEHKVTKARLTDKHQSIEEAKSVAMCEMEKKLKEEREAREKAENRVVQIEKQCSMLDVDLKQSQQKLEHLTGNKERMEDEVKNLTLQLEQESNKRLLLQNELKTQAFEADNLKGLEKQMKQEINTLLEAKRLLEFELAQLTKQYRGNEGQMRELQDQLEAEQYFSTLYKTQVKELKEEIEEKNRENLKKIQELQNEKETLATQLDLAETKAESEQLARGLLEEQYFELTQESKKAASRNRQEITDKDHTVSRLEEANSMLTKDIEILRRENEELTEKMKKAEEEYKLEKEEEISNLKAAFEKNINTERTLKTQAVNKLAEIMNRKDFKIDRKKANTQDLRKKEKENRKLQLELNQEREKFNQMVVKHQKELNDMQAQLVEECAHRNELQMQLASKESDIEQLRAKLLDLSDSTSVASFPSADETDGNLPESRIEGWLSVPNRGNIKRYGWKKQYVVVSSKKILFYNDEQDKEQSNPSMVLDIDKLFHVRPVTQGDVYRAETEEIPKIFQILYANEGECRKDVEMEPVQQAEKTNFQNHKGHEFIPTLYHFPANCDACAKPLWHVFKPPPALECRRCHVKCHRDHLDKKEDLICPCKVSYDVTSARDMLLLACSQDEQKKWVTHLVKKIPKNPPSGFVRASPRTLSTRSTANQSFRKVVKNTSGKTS
UniProt Q04206, whole entry, looked up: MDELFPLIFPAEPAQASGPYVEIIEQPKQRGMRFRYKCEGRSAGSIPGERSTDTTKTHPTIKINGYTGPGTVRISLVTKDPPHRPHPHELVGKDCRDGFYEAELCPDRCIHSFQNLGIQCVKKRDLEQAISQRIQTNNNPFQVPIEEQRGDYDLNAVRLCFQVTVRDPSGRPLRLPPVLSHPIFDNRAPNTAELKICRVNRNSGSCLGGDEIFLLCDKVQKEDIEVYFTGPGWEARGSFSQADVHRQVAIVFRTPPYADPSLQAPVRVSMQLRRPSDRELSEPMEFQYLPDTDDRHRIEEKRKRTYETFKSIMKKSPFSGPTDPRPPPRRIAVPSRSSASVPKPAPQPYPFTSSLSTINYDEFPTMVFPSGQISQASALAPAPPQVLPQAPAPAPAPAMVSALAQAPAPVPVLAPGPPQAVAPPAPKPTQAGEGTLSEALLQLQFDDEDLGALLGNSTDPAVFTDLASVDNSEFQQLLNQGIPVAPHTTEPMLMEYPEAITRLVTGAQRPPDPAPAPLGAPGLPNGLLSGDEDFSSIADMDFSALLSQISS

Compound in the assay: COC(=O)C#Cc1ccccc1 [methyl 3-phenylpropiolate]
The assay can be described thus: log2 ratio of iodoacetamide-alkyne labeling of the cysteine site, DMSO over compound (competition); higher = stronger covalent engagement of the cysteine by the compound, active = 1 or more. The conditions noted are these: 500 µM; treatment time 1 h; system: HEK293T cell lysate. The method, boiled down:
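The log2 competition ratio per cysteine is defined as mean reporter intensity in control channels over mean reporter intensity in compound channels. Lysate from HEK293T cells (2 mg/mL) received electrophile (500 µM) or vehicle for 1 h at ambient temperature, followed by iodoacetamide alkyne for 1 h. Samples were clicked to sCIP-TMT reagents, pooled, trypsin-digested overnight at 37 °C, streptavidin-enriched, acid-eluted and run on Orbitrap Eclipse LC-MS/MS with FAIMS, with quantification in FragPipe. Three replicates with duplicate channels were used, and any cysteine quantified in only one replicate was excluded.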
For TRAF2 C124 (UniProt Q12933), the “log2 ratio of iodoacetamide-alkyne labeling” value (from here on “log2 ratio”) is inactive: 0.26.

As to UniProt Q13247_C121, the “log2 ratio” value was inactive: -0.0624.

With DST C4439 (UniProt Q03001), the “log2 ratio” value is inactive: 0.187.

On to TCOF1 C38 (UniProt Q13428), for which the “log2 ratio” value was inactive: 0.285.

Consider PABPC4 C132 (UniProt Q13310), for which the “log2 ratio” value is inactive: 0.046.

On to UniProt Q13242_C138, for which the “log2 ratio” value is inactive: 0.112.

In the case of ACACA C1230 (UniProt Q13085), the “log2 ratio” value was inactive: 0.772.

As to PTPN11 C259 (UniProt Q06124), the “log2 ratio” value is inactive: 0.144.

Take TP53BP1 C1375 (UniProt Q12888): the “log2 ratio” value was inactive: 0.327.

GRSF1 C29 (UniProt Q12849): the “log2 ratio” value was inactive: 0.434.

For PPAT C496 (UniProt Q06203), the “log2 ratio” value is inactive: 0.238.

On to UBE3A C198 (UniProt Q05086), for which the “log2 ratio” value was inactive: 0.354.

As for UniProt Q12905_C37, the “log2 ratio” value was inactive: 0.0335.

With OS9 C246 (UniProt Q13438), the “log2 ratio” value was inactive: 0.57.

On to NSUN2 C502 (UniProt Q08J23), for which the “log2 ratio” value was inactive: 0.126.

Regarding NME3 C158 (UniProt Q13232), the “log2 ratio” value is inactive: 0.955.

Take NSUN2 C321 (UniProt Q08J23): the “log2 ratio” value was inactive: -0.091.

For TRAF2 C129 (UniProt Q12933), the “log2 ratio” value is inactive: 0.4.

Consider TARDBP C198 (UniProt Q13148), for which the “log2 ratio” value is inactive: 0.069.

With CHD3 C1464 (UniProt Q12873), the “log2 ratio” value is inactive: 0.281.

As to GAB1 C8 (UniProt Q13480), the “log2 ratio” value is inactive: 0.326.

Turning to AKAP12 C684 (UniProt Q02952), the “log2 ratio” value is inactive: 0.0232.

CSTF3 C176 (UniProt Q12996): the “log2 ratio” value was inactive: -0.0873.

Regarding EIF4G1 C1516 (UniProt Q04637), the “log2 ratio” value was inactive: -0.147.

Turning to ROCK1 C1206 (UniProt Q13464), the “log2 ratio” value is inactive: 0.46.

On to GFPT1 C2 (UniProt Q06210), for which the “log2 ratio” value was inactive: -0.0189.

On to NFIA C404 (UniProt Q12857), for which the “log2 ratio” value was inactive: 0.423.

As to TRIM28 C628 (UniProt Q13263), the “log2 ratio” value is inactive: 0.111.

With RPL18A C22 (UniProt Q02543), the “log2 ratio” value was inactive: 0.313.

As to EEF1A2 C411 (UniProt Q05639), the “log2 ratio” value is inactive: 0.518.

RELA C109 (UniProt Q04206): the “log2 ratio” value was inactive: 0.332.

Turning to CAMSAP2 C1416 (UniProt Q08AD1), the “log2 ratio” value was inactive: 0.764.

In the case of NUP160 C1003 (UniProt Q12769), the “log2 ratio” value is inactive: 0.385.

GTF3C1 C1091 (UniProt Q12789): the “log2 ratio” value was inactive: 0.819.

With UniProt Q03164_C990, the “log2 ratio” value is inactive: 0.335.

As for KLC1 C456 (UniProt Q07866), the “log2 ratio” value is inactive: 0.813.

As for DHX9 C415 (UniProt Q08211), the “log2 ratio” value was inactive: 0.202.

The record behind these values is the supplement of paper PMC11006884.
